Construct, isoform or probe ends are uncertain for at least one entry. For part of these data: At least one verdict was read from the data and is not stated in words by the source. For part of these data: Tags and fusion partners may be left off the protein sequences shown.

Consider three sequences from article PMC3406032, “Tristetraprolin Inhibits Poly(A)-Tail Synthesis in Nuclear mRNA that Contains AU-Rich Elements by Interacting with Poly(A)-Binding Protein Nuclear 1” (PLoS ONE, 2012).

In one data set the target is T1, WT GST-TTP (mouse) (UniProt P22893).
T1 sequence (looked up): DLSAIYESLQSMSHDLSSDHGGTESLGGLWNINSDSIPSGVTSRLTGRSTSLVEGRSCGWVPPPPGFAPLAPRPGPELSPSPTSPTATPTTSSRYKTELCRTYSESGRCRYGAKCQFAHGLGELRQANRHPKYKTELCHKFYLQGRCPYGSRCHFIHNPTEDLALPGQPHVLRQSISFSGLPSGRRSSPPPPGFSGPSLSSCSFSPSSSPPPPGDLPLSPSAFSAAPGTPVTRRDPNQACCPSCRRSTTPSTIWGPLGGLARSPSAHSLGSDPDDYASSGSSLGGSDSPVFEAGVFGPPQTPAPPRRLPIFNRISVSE
Briefly: EMSA. The following applies: REMSA as previously described (ref 54), 10 ng GST-TTP, 10- to 20-fold excess PABPN1 and/or PAP, native PAGE, recombinant protein, residues 2-319, protein details: N-terminal GST, label: 32P, probe letters rebuilt from the primers and the genome, part of a longer molecule. On the technique in general: A gel shift assay detects complexes by their altered migration in electrophoresis.

Data set [1] has as its system WT GST-TTP + (His)6-PABPN1. Briefly: EMSA supershift. The following applies: PABPN1 recruited by TTP, supershift with anti-TTP and anti-PABPN1; REMSA as previously described (ref 54); 10 ng GST-TTP, 10- to 20-fold excess PABPN1 and/or PAP, native PAGE; pH and temperature not given; recombinant protein; protein details: N-terminal GST,(His)6; label: 32P; probe letters rebuilt from the primers and the genome; part of a longer molecule.

In data set [2] the test system is WT GST-TTP + (His)6-PABPN1. Put plainly: EMSA. The following applies: TTP/PABPN1/RNA complex; REMSA as previously described (ref 54); 10 ng GST-TTP, 10- to 20-fold excess PABPN1 and/or PAP, native PAGE; pH and temperature not given; recombinant protein; protein details: N-terminal GST,(His)6; label: 32P; probe letters rebuilt from the primers and the genome; part of a longer molecule.

For the next data set, the target named is T2, (His)6-PABPN1 (mouse) (UniProt Q8CCS6).
T2 sequence (looked up, limits assumed): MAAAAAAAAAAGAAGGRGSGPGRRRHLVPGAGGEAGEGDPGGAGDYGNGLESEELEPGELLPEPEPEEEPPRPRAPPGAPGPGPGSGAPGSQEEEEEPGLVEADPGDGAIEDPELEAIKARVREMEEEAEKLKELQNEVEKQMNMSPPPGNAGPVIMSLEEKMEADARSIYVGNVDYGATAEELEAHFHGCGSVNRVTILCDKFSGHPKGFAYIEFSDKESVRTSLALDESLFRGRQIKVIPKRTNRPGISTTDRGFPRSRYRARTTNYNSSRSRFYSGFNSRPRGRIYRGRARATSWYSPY
Put plainly: EMSA. The following applies: REMSA as previously described (ref 54), 10 ng GST-TTP, 10- to 20-fold excess PABPN1 and/or PAP, native PAGE, pH and temperature not given, recombinant protein, protein details: (His)6, label: 32P, probe letters rebuilt from the primers and the genome, part of a longer molecule.

As to “UGAGGUGCAAUGCACAGCCUUCCUCACAGAGCCAGCCCCCCUCUAUUUAUAUUUGCACUUAUUAUUUAUUAUUUAUUUAUUAUUUAUUUAUUUGCUUAUGAAUGUAUUUAUUUGGAAGGCCGG [TNFa-ARE]”, the binding result with WT GST-TTP (mouse) (pH and temperature not given) is reported as “binds”; in data set [1], “binds”.

Consider “UGAGGUGCAAUGCACAGCCUUCCUCACAGAGCCAGCCCCCCUCUAUUUAUAUUUGCACUUAUUAUUUAUUAUUUAUUUAUUAUUUAUUUAUUUGCUUAUGAAUGUAUUUAUUUGGAAGGCCGG [TNFa-ARE_A20]”, for which the binding result is reported as “binds” in data set [2]; “binds” with WT GST-TTP (mouse) (TTP on the ARE region, pH and temperature not …); “binds” with (His)6-PABPN1 (mouse) (PABPN1 on the poly(A) tail).

For the sequence “UCUCCCUCACAAUUUCCACCCCAGACCCUCAUAGUAACAGGAUGAGCCUAGGGAGCCCUUCCUACUCUCUUGAAUACCAUCAAUAAAGUUCGCUGCACCC [GAPDH-3'UTR_A20]”, in the data set with (His)6-PABPN1 (mouse), the binding result is “binds”.
